Test results reported in paper doi:10.1101/2023.12.18.572145.
No constants are given. Whether binding was seen depends on the method and setting. Some binding calls cover weakened binding; strength is not graded here.

Amino acid sequences for entries named in this document (tags omitted). A change or cut given only in a name is not applied to a line headed by its entry. Residues count along the entry.
UniProt Q9BPX5, whole entry: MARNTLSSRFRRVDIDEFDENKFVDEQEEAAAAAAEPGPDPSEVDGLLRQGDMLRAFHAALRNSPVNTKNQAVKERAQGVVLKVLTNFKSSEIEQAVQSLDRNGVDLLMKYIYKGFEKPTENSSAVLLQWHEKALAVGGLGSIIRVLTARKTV
UniProt Q9BTE1, whole entry: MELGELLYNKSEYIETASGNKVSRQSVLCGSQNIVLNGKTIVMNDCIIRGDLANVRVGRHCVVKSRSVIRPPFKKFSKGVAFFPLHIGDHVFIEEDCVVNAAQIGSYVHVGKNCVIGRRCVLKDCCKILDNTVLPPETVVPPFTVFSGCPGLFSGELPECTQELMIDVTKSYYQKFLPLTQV
UniProt P19404, 33-249: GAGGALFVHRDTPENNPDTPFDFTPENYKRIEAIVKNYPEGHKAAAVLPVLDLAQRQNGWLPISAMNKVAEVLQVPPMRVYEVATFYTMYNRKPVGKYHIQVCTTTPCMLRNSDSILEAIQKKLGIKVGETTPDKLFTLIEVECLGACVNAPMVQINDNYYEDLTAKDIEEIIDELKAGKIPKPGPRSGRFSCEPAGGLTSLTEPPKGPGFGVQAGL

Key:
[1] = molecular target: recombinant PREPLs p.Arg243Cys (residues 90-727) (human) (UniProt Q4J6C6); assay: SEC
[2] = molecular target: PREPL p.Ser559Ala, catalytically inactive (MAPPIT bait) (human) (UniProt Q4J6C6); assay: two-hybrid
[3] = molecular target: PREPLS, wild type (MAPPIT bait) (human) (UniProt Q4J6C6); assay: two-hybrid
[4] = molecular target: recombinant PREPLs p.Arg647Gln (residues 90-727) (human) (UniProt Q4J6C6); assay: SEC
[5] = molecular target: PREPL p.Arg243Cys (MAPPIT bait) (human) (UniProt Q4J6C6); assay: two-hybrid
[6] = molecular target: PREPL p.Arg647Gln (MAPPIT bait) (human) (UniProt Q4J6C6); assay: two-hybrid
[7] = molecular target: T1, recombinant PREPLs p.Ser559Ala, catalytically inactive (residues 90-727) (human), Q4J6C6; assay: SEC; conditions: remark: other sources report otherwise
T1 chain: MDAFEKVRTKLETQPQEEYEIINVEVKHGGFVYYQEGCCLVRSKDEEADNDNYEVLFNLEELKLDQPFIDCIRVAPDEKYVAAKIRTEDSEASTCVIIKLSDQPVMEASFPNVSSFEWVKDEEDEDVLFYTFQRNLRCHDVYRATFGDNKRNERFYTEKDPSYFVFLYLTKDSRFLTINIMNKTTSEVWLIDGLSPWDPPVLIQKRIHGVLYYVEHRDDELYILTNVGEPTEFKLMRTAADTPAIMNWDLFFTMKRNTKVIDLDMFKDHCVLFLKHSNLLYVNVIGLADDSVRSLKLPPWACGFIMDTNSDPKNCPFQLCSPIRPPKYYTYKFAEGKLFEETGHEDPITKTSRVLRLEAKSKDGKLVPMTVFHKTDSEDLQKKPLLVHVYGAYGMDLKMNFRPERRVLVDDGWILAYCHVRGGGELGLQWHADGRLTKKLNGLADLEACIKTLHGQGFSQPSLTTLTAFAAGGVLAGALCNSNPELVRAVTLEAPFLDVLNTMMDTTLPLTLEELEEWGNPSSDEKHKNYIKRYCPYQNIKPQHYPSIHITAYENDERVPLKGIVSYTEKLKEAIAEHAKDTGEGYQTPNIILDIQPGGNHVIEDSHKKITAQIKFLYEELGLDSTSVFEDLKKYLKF

## recombinant PREPLs p.Arg243Cys (residues 90-727) (from UniProt Q4J6C6 90-727) (enzyme)
[1]
  binding: no binding

## ARPC5L (from UniProt Q9BPX5 1-153)
[2]
  binding: binds
[3]
  binding: binds

## DCTN5 (from UniProt Q9BTE1 1-182)
[3]
  binding: binds

## recombinant PREPLs p.Arg647Gln (residues 90-727) (from UniProt Q4J6C6 90-727) (enzyme)
[4]
  binding: no binding

## NDUFV2 (from UniProt P19404 33-249)
[2]
  binding: binds
[3]
  binding: binds

B1: UBL5 (protein, UniProt Q9BZL1 1-73)
chain: MIEVVCNDRLGKKVRVKCNTDDTIGDLKKLIAAQTGTRWNKIVLKKWYTIFKDHVSLGDYEIHDGMNLELYYQ
[5]
  binding: binds
[6]
  binding: binds
[3]
  binding: binds

B2: DISC1 (protein, UniProt Q9NRI5 1-854)
chain: MPGGGPQGAPAAAGGGGVSHRAGSRDCLPPAACFRRRRLARRPGYMRSSTGPGIGFLSPAVGTLFRFPGGVSGEESHHSESRARQCGLDSRGLLVRSPVSKSAAAPTVTSVRGTSAHFGIQLRGGTRLPDRLSWPCGPGSAGWQQEFAAMDSSETLDASWEAACSDGARRVRAAGSLPSAELSSNSCSPGCGPEVPPTPPGSHSAFTSSFSFIRLSLGSAGERGEAEGCPPSREAESHCQSPQEMGAKAASLDGPHEDPRCLSRPFSLLATRVSADLAQAARNSSRPERDMHSLPDMDPGSSSSLDPSLAGCGGDGSSGSGDAHSWDTLLRKWEPVLRDCLLRNRRQMEVISLRLKLQKLQEDAVENDDYDKAETLQQRLEDLEQEKISLHFQLPSRQPALSSFLGHLAAQVQAALRRGATQQASGDDTHTPLRMEPRLLEPTAQDSLHVSITRRDWLLQEKQQLQKEIEALQARMFVLEAKDQQLRREIEEQEQQLQWQGCDLTPLVGQLSLGQLQEVSKALQDTLASAGQIPFHAEPPETIRSLQERIKSLNLSLKEITTKVCMSEKFCSTLRKKVNDIETQLPALLEAKMHAISGNHFWTAKDLTEEIRSLTSEREGLEGLLSKLLVLSSRNVKKLGSVKEDYNRLRREVEHQETAYETSVKENTMKYMETLKNKLCSCKCPLLGKVWEADLEACRLLIQSLQLQEARGSLSVEDERQMDDLEGAAPPIPPRLHSEDKRKTPLKVLEEWKTHLIPSLHCAGGEQKEESYILSAELGEKCEDIGKKLLYLEDQLHTAIHSHDEDLIQSLRRELQMVKETLQAMILQLQPAKEAGEREAAASCMTAGVHEAQA
[6]
  binding: binds
[3]
  binding: binds

B3: STX5 (protein, UniProt Q13190 1-355)
chain: MIPRKRYGSKNTDQGVYLGLSKTQVLSPATAGSSSSDIAPLPPPVTLVPPPPDTMSCRDRTQEFLSACKSLQTRQNGIQTNKPALRAVRQRSEFTLMAKRIGKDLSNTFAKLEKLTILAKRKSLFDDKAVEIEELTYIIKQDINSLNKQIAQLQDFVRAKGSQSGRHLQTHSNTIVVSLQSKLASMSNDFKSVLEVRTENLKQQRSRREQFSRAPVSALPLAPNHLGGGAVVLGAESHASKDVAIDMMDSRTSQQLQLIDEQDSYIQSRADTMQNIESTIVELGSIFQQLAHMVKEQEETIQRIDENVLGAQLDVEAAHSEILKYFQSVTSNRWLMVKIFLILIVFFIIFVVFLA
[2]
  binding: binds
[3]
  binding: binds

B4: MDM1 (protein, UniProt Q8TC05 1-714)
chain: MPVRFKGLSEYQRNFLWKKSYLSESCNSSVGRKYPWAGLRSDQLGITKEPSFISKRRVPYHDPQISKSLEWNGAISESNVVASPEPEAPETPKSQEAEQKDVTQERVHSLEASRVPKRTRSHSADSRAEGASDVENNEGVTNHTPVNENVELEHSTKVLSENVDNGLDRLLRKKAGLTVVPSYNALRNSEYQRQFVWKTSKETAPAFAANQVFHNKSQFVPPFKGNSVIHETEYKRNFKGLSPVKEPKLRNDLRENRNLETVSPERKSNKIDDRLKLEAEMELKDLHQPKRKLTPWKHQRLGKVNSEYRAKFLSPAQYLYKAGAWTHVKGNMPNQVKELREKAEFYRKRVQGTHFSRDHLNQILSDSNCCWDVSSTTSSEGTVSSNIRALDLAGDPTSHKTLQKCPSTEPEEKGNIVEEQPQKNTTEKLGVSAPTIPVRRRLAWDTENTSEDVQKQPGEKEEEDDNEEEGDRKTGKQAFMGEQEKLDVREKSKADKMKEGSDSSVSSEKGGRLPTPKLRELGGIQRTHHDLTTPAVGGAVLVSPSKMKPPAPEQRKRMTSQDCLETSKNDFTKKESRAVSLLTSPAAGIKTVDPLPLREDSEDNIHKFAEATLPVSKIPKYPTNPPGQLPSPPHVPSYWHPSRRIQGSLRDPEFQHNVGKARMNNLQLPQHEAFNDEDEDRLSEISARSAASSLRAFQTLARAKKRKENFWGKT
[2]
  binding: binds
[3]
  binding: binds

B5: recombinant PREPLs p.Ser559Ala, catalytically inactive (residues 90-727), Q4J6C6 90-727 (enzyme)
chain: MDAFEKVRTKLETQPQEEYEIINVEVKHGGFVYYQEGCCLVRSKDEEADNDNYEVLFNLEELKLDQPFIDCIRVAPDEKYVAAKIRTEDSEASTCVIIKLSDQPVMEASFPNVSSFEWVKDEEDEDVLFYTFQRNLRCHDVYRATFGDNKRNERFYTEKDPSYFVFLYLTKDSRFLTINIMNKTTSEVWLIDGLSPWDPPVLIQKRIHGVLYYVEHRDDELYILTNVGEPTEFKLMRTAADTPAIMNWDLFFTMKRNTKVIDLDMFKDHCVLFLKHSNLLYVNVIGLADDSVRSLKLPPWACGFIMDTNSDPKNCPFQLCSPIRPPKYYTYKFAEGKLFEETGHEDPITKTSRVLRLEAKSKDGKLVPMTVFHKTDSEDLQKKPLLVHVYGAYGMDLKMNFRPERRVLVDDGWILAYCHVRGGGELGLQWHADGRLTKKLNGLADLEACIKTLHGQGFSQPSLTTLTAFAAGGVLAGALCNSNPELVRAVTLEAPFLDVLNTMMDTTLPLTLEELEEWGNPSSDEKHKNYIKRYCPYQNIKPQHYPSIHITAYENDERVPLKGIVSYTEKLKEAIAEHAKDTGEGYQTPNIILDIQPGGNHVIEDSHKKITAQIKFLYEELGLDSTSVFEDLKKYLKF
[7]
  binding: no binding
